Results: publication PMC5682650
Results are given in words; binding and its absence hold for the method and conditions named. In cells and extracts the contact can be indirect. Some binding calls cover weakened binding; strength is not graded here.

The chains behind the UniProt entries cited, without tags or fusion partners. Where a name states a change or a piece, a line headed by the entry shows the natural chain unless it says otherwise. A line that says so, or that is headed by a name, gives the form on record, which may keep a tag or linker. Residues count along the entry.
UniProt P42224: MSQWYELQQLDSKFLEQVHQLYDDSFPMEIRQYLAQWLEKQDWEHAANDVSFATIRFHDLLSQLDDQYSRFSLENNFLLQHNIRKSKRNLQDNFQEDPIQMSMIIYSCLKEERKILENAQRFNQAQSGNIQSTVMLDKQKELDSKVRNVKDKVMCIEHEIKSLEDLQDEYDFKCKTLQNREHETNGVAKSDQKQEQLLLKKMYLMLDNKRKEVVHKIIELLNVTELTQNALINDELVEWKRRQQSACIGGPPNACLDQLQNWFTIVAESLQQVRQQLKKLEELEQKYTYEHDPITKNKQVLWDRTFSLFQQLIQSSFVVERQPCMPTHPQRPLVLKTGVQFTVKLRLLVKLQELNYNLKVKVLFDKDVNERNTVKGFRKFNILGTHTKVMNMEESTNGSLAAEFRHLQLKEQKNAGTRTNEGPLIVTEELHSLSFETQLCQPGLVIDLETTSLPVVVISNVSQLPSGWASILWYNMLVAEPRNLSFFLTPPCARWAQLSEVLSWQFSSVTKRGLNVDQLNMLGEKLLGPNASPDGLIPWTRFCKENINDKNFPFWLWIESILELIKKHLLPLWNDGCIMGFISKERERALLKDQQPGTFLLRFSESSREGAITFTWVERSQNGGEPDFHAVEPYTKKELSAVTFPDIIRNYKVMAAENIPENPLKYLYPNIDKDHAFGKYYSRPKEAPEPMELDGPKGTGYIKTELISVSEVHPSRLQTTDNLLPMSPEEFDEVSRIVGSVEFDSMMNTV
Flag-tagged STAT1β: residues 1-712 of P42224
Flag-tagged STAT1β^Y701F (P42224-2, form named): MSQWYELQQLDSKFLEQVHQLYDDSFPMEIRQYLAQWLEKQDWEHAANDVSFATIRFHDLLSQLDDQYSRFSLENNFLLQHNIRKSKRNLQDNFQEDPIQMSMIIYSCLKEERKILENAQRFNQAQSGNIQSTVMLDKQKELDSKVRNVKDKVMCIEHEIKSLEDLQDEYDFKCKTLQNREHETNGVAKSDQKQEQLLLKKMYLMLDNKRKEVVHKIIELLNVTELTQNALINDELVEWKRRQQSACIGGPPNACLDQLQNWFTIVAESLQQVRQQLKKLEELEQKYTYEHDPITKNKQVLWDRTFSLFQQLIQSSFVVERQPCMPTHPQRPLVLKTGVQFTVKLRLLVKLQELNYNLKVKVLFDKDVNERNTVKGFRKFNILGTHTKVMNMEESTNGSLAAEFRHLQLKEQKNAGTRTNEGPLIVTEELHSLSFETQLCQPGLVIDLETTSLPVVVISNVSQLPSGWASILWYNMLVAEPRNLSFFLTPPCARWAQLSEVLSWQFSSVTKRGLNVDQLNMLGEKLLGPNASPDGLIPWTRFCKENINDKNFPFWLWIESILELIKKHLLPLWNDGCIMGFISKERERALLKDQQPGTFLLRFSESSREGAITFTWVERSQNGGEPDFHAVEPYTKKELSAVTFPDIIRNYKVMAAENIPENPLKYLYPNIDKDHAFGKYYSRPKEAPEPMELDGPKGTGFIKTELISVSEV

Target: STAT1α (human (endogenous in EC1 / KYSE150 cells)) (UniProt P42224)
Assay: co-IP; whole-cell extracts of ESCC cells transfected with Flag-tagged STAT1β, with or without IFN-γ stimulation; IP with control IgG, anti-Flag or anti-STAT1α, protein G Plus/A beads, 4 °C overnight; western blot with anti-STAT1α and anti-Flag

Substance	binding
Flag-tagged STAT1β^Y701F (from UniProt P42224-2 1-712)	no binding
Flag-tagged STAT1β (from UniProt P42224-2 1-712)	binds
